In test [1] the target is T1, human Orc6 (hOrc6), endogenous (human (endogenous in U2OS)) (UniProt Q9Y5N6).
T1 sequence: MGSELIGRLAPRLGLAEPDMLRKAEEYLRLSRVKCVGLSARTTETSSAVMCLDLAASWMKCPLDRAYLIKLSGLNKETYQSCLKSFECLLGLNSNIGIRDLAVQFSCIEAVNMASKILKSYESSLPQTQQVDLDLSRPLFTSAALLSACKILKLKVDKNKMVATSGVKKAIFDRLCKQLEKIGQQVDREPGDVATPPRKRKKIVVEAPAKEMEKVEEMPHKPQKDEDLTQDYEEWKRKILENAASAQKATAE
As to the kind of experiment: co-IP.

Chains of the proteins cited; added tags and fusions are not shown.
UniProt P12004: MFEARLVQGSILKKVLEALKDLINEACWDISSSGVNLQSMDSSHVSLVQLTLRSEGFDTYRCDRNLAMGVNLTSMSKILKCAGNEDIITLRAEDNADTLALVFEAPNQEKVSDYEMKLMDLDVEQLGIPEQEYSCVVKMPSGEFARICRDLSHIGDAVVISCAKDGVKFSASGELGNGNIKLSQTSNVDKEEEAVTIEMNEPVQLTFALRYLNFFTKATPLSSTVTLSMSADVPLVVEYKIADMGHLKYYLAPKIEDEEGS
UniProt P15927: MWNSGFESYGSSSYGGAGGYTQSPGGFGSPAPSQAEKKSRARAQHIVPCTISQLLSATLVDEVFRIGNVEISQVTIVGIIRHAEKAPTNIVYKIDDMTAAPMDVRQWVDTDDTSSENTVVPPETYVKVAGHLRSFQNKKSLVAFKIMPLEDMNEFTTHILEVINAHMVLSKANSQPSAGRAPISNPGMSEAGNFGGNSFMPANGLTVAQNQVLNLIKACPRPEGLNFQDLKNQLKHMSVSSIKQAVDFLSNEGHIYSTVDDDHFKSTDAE

Test [2] addresses T2, Orc6 expressed by transient transfection for SiMPull (human) (UniProt Q9Y5N6).
T2 sequence: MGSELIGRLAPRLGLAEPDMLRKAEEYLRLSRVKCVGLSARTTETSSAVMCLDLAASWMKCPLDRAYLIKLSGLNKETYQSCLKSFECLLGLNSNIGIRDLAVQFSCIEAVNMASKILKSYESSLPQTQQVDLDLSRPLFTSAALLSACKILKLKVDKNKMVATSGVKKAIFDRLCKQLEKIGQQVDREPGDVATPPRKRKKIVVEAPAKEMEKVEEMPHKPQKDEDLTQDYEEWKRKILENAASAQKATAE
In words: single molecule pull-down.

Test [3] has as its target T3, Human GST-Flag-Orc6, full length (human) (UniProt Q9Y5N6).
T3 sequence: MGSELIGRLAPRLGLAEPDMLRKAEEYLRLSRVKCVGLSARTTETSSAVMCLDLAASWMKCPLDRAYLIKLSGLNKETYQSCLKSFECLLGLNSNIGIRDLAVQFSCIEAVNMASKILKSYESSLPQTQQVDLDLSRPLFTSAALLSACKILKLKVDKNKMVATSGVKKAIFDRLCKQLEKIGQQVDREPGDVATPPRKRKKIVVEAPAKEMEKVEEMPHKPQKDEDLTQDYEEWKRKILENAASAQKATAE
As to the kind of experiment: pull-down.

These results are taken from publication doi:10.1101/2021.05.10.443400 (bioRxiv, 2021).

Results are given in words; binding and its absence hold for the method and conditions named. For part of these data: In cells and extracts the contact can be indirect. Some binding calls cover weakened binding; strength is not graded here. For part of these data: Where a sequence is shown, tags or fusion partners need not be part of it.

On to “DNA clamp PCNA, endogenous (from UniProt P12004 1-261)”, for which the binding entry in test [1] is “binds”.
On to “RPA32 expressed by transient transfection for SiMPull (from UniProt P15927 1-270)”, for which the binding entry in test [2] is listed as “binds”.

B1: Human Flag-MutLα (MLH1-PMS2 complex), purified (complex)
chain 1: MSFVAGVIRRLDETVVNRIAAGEVIQRPANAIKEMIENCLDAKSTSIQVIVKEGGLKLIQIQDNGTGIRKEDLDIVCERFTTSKLQSFEDLASISTYGFRGEALASISHVAHVTITTKTADGKCAYRASYSDGKLKAPPKPCAGNQGTQITVEDLFYNIATRRKALKNPSEEYGKILEVVGRYSVHNAGISFSVKKQGETVADVRTLPNASTVDNIRSIFGNAVSRELIEIGCEDKTLAFKMNGYISNANYSVKKCIFLLFINHRLVESTSLRKAIETVYAAYLPKNTHPFLYLSLEISPQNVDVNVHPTKHEVHFLHEESILERVQQHIESKLLGSNSSRMYFTQTLLPGLAGPSGEMVKSTTSLTSSSTSGSSDKVYAHQMVRTDSREQKLDAFLQPLSKPLSSQPQAIVTEDKTDISSGRARQQDEEMLELPAPAEVAAKNQSLEGDTTKGTSEMSEKRGPTSSNPRKRHREDSDVEMVEDDSRKEMTAACTPRRRIINLTSVLSLQEEINEQGHEVLREMLHNHSFVGCVNPQWALAQHQTKLYLLNTTKLSEELFYQILIYDFANFGVLRLSEPAPLFDLAMLALDSPESGWTEEDGPKEGLAEYIVEFLKKKAEMLADYFSLEIDEEGNLIGLPLLIDNYVPPLEGLPIFILRLATEVNWDEEKECFESLSKECAMFYSIRKQYISEESTLSGQQSEVPGSIPNSWKWTVEHIVYKALRSHILPPKHFTEDGNILQLANLPDLYKVFERC
chain 2: MERAESSSTEPAKAIKPIDRKSVHQICSGQVVLSLSTAVKELVENSLDAGATNIDLKLKDYGVDLIEVSDNGCGVEEENFEGLTLKHHTSKIQEFADLTQVETFGFRGEALSSLCALSDVTISTCHASAKVGTRLMFDHNGKIIQKTPYPRPRGTTVSVQQLFSTLPVRHKEFQRNIKKEYAKMVQVLHAYCIISAGIRVSCTNQLGQGKRQPVVCTGGSPSIKENIGSVFGQKQLQSLIPFVQLPPSDSVCEEYGLSCSDALHNLFYISGFISQCTHGVGRSSTDRQFFFINRRPCDPAKVCRLVNEVYHMYNRHQYPFVVLNISVDSECVDINVTPDKRQILLQEEKLLLAVLKTSLIGMFDSDVNKLNVSQQPLLDVEGNLIKMHAADLEKPMVEKQDQSPSLRTGEEKKDVSISRLREAFSLRHTTENKPHSPKTPEPRRSPLGQKRGMLSSSTSGAISDKGVLRPQKEAVSSSHGPSDPTDRAEVEKDSGHGSTSVDSEGFSIPDTGSHCSSEYAASSPGDRGSQEHVDSQEKAPKTDDSFSDVDCHSNQEDTGCKFRVLPQPTNLATPNTKRFKKEEILSSSDICQKLVNTQDMSASQVDVAVKINKKVVPLDFSMSSLAKRIKQLHHEAQQSEGEQNYRKFRAKICPGENQAAEDELRKEISKTMFAEMEIIGQFNLGFIITKLNEDIFIVDQHATDEKYNFEMLQQHTVLQGQRLIAPQTLNLTAVNEAVLIENLEIFRKNGFDFVIDENAPVTERAKLISLPTSKNWTFGPQDVDELIFMLSDSPGVMCRPSRVKQMFASRACRKSVMIGTALNTSEMKKLITHMGEMDHPWNCPHGRPTMRHIANLGVISQN
As for B1, the binding result in test [3] is “no binding”.
